These are yes or no findings as the source states them, for the method shown. Binding seen in cells or lysates may run through a third protein. Some entries that bind do so weakly or less than the wild type.
How the values were obtained:
[1] = biological target: p53 binding protein 1 (53BP1) (human (endogenous in T47D, MDA-MB-231, MDA-MB-468)) (UniProt Q12888); experiment: proximity ligation; Duolink PLA on fixed, permeabilised T47D and MDA-MB-231 cells (vector control, shmdm2 and shmdmx derivatives); goat anti-53BP1, rabbit anti-p53, rabbit anti-MDC1, mouse anti-MDM2 4B2; foci per nucleus by confocal microscopy; also after 10 uM Nutlin 3a 24 h, 50 uM etoposide 2 h and 5 h, 10 uM ALRN-6924, 10 uM KU-55933 (ATMi), EdU labelling
[2] = biological target: p53 binding protein 1 (53BP1) (human (endogenous in T47D, MDA-MB-231, MDA-MB-468)) (UniProt Q12888); experiment: co-IP; 53BP1 precipitated with goat anti-53BP1 (PLA0303) on Protein G Mag Sepharose from T47D chromatin extract soluble made with benzonase and cathepsin L inhibitor, 4 h at 4°C; blot for 53BP1, MDC1, MDM2 and p53; IgG as control
[3] = biological target: p53 binding protein 1 (53BP1) (human (endogenous in T47D, MDA-MB-231, MDA-MB-468)) (UniProt Q12888); experiment: proximity ligation; 53BP1–MDC1 PLA on T47D cell populations pre-extracted with cytoskeletal buffer (CSK) before fixation (Supplementary Fig. S3)

By UniProt entry, the sequences of proteins in these tests, tags left out. Where a name states a change or a piece, a line headed by the entry shows the natural chain unless it says otherwise.
UniProt Q12888: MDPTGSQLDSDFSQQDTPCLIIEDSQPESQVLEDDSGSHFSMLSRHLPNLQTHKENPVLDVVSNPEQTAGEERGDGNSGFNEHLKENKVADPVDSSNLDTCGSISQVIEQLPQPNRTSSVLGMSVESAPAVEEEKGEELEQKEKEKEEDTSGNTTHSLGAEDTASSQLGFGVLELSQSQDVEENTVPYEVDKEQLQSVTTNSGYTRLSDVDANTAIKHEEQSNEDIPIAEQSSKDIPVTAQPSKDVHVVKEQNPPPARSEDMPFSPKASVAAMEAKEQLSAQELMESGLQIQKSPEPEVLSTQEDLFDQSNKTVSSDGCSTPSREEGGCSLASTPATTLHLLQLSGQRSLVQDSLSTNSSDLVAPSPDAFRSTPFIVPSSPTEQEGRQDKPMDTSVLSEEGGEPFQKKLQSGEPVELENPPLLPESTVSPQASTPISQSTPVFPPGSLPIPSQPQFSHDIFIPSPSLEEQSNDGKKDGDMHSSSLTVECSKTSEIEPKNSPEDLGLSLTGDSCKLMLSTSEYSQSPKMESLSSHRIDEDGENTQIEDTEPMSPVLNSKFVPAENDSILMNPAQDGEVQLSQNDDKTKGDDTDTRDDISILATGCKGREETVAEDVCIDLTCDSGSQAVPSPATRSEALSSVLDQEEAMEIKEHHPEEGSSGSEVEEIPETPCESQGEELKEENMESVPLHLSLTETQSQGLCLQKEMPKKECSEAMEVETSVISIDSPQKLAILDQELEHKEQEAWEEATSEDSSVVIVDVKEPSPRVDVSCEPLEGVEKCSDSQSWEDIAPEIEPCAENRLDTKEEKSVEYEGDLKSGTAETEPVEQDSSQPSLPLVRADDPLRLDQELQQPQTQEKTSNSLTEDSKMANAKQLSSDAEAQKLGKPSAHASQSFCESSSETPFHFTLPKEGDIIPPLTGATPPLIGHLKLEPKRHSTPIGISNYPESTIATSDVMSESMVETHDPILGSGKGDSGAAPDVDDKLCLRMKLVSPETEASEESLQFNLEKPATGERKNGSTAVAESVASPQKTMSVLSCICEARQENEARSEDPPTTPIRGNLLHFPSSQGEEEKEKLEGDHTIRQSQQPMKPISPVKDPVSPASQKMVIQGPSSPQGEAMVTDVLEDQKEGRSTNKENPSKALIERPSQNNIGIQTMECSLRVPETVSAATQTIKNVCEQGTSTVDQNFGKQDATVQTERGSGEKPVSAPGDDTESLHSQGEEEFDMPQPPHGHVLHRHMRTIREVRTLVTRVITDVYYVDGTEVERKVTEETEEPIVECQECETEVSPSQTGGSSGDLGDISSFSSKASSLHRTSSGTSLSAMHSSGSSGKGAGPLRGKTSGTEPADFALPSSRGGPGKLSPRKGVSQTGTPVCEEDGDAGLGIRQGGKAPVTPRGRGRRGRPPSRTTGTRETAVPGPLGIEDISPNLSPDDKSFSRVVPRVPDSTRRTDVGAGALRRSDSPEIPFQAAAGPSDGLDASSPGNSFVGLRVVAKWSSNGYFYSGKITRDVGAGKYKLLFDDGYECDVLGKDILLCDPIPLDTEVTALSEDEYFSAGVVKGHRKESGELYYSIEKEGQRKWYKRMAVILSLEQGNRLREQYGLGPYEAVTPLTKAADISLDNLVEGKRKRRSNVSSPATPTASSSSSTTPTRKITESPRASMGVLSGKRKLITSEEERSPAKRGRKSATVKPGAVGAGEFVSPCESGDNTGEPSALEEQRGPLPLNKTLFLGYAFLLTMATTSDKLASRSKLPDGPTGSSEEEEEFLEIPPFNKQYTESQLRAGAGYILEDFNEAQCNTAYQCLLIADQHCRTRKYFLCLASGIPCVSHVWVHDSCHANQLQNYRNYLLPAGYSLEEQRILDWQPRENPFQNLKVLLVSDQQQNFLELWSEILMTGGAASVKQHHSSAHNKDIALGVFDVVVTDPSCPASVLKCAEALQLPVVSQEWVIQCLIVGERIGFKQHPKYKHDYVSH
UniProt Q00987: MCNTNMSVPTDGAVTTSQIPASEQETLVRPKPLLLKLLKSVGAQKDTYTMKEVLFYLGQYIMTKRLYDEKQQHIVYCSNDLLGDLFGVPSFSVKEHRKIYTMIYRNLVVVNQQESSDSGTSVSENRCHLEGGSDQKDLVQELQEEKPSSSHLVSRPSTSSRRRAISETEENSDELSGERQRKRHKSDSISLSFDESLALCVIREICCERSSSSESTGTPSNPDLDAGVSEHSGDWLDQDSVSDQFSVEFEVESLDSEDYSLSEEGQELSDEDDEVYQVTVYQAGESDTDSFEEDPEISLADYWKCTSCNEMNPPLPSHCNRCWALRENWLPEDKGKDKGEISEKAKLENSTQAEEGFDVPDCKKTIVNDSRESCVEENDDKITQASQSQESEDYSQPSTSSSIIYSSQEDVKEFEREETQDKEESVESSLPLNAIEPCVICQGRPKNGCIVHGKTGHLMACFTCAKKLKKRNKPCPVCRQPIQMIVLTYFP
UniProt Q14676: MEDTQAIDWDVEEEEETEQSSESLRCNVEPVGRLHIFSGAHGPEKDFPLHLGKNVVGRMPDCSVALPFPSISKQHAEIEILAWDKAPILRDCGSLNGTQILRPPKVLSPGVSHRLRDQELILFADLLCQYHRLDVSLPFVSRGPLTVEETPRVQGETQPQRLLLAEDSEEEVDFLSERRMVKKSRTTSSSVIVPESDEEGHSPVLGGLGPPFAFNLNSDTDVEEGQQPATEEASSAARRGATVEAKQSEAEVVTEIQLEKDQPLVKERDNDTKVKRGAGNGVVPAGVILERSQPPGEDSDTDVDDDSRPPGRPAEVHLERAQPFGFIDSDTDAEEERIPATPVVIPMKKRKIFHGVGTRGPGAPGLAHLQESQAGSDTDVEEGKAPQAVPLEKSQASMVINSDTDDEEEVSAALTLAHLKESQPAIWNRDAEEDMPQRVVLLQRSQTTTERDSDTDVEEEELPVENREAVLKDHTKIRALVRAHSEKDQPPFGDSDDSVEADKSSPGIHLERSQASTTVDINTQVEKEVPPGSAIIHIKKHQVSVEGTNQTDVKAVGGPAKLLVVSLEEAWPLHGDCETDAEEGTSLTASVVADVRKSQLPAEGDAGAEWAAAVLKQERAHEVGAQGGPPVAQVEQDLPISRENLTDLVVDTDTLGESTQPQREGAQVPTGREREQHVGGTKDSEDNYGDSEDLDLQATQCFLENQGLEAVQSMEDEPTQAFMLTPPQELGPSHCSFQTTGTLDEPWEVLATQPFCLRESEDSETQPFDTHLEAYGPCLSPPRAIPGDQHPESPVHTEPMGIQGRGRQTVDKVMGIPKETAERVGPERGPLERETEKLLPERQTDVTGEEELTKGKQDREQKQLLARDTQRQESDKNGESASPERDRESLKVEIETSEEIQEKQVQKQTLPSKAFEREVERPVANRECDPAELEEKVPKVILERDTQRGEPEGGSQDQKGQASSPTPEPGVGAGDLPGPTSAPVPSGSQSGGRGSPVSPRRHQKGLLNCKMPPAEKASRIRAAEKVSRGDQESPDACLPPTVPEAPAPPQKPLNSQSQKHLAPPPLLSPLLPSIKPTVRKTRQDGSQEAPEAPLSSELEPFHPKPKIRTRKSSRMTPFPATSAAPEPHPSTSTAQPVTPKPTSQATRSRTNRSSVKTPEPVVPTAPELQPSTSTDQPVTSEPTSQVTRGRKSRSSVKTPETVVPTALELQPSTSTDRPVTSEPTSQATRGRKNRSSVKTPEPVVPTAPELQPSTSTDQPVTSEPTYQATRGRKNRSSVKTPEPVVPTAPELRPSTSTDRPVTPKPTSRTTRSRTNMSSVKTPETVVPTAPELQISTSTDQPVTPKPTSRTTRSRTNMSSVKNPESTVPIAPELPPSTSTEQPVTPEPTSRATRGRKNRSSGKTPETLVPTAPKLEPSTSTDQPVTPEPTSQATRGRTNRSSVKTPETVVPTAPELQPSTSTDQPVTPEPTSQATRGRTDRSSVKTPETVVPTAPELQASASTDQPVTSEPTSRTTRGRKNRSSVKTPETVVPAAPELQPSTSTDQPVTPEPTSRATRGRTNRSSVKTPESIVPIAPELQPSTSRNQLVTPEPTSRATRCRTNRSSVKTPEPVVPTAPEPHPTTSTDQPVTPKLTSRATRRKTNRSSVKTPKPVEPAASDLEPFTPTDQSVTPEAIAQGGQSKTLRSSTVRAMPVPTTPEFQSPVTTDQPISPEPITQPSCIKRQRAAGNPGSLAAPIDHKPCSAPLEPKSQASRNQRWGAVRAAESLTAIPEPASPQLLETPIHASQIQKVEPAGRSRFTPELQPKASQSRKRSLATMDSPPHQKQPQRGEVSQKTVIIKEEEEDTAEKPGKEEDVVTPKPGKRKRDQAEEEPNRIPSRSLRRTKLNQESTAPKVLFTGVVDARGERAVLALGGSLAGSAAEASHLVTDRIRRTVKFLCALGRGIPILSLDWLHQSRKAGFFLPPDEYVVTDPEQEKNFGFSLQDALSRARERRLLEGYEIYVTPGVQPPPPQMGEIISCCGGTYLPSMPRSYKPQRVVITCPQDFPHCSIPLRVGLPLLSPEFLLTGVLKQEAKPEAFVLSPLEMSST

MDM2 (from UniProt Q00987 1-491)
binding [1]: binds
binding [2]: binds

mediator of dna damage checkpoint 1 (MDC1) (from UniProt Q14676 1-2089)
binding [3]: binds
binding [2]: binds
